In PMC7819943, “Rice protein-binding microarrays: a tool to detect cis-acting elements near promoter regions in rice” one finds binding signal data, which are given here for 54 sequences.

Chains of the proteins cited; added tags and fusions are not shown.
UniProt Q0JBA9, entry or part of it: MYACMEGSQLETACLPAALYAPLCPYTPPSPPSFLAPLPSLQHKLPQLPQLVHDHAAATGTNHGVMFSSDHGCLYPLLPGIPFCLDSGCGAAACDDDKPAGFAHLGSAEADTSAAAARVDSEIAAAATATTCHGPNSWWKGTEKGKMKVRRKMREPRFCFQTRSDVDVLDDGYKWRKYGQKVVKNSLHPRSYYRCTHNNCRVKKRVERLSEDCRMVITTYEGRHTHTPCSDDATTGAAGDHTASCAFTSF

This is one part of the list.

This assay has as its target OsWRKY34 (Oryza sativa, UniProt Q0JBA9 1-250). Description: protein-binding microarray (RPBM); PBS, 2% BSA, 51.3 ng/ul salmon testes DNA, 50 uM zinc acetate, 200 nM TF, 25 C, 1 h; high values mean tight binding. The conditions noted are these: protein: recombinant; tags: N-terminal polyhistidine and DsRed monomer fusion (pET32a); label: CyDye5-dUTP incorporated in the synthesized complementary strand; 3' TTTTT single-stranded linker to array surface; dsDNA, one strand shown. Put shortly:
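The binding signal for each feature is its fluorescence intensity in arbitrary units. An Axon 4000B scanner was used to read a custom Agilent array that had been made double-stranded with Cy5-dUTP primer extension, blocked with 2% BSA, incubated at 25 °C for 1 h with 200 nM protein in PBS, 2% BSA, salmon testes DNA and 50 µM zinc acetate, and washed. The protein was an N-terminal polyhistidine–DsRed transcription factor fusion from E. coli BL21-CodonPlus, purified on Ni–NTA.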
For the sequence “TTTCGCTTACACATTTTTCAGACAACTAAGCAGTTTTTTACGGAGTCACCTAGTGCAG”, the binding signal was 9600 fluorescence intensity (a.u.). As to “AATTACTACAGGCATATGCACCATCAATTTTCATTTACATCGGAGTCACCTAGTGCAG”, the binding signal is 8180 fluorescence intensity (a.u.). Take “TTATTTTGTTATGAGTTGTTTTATCACTCATAGTACTTTACGGAGTCACCTAGTGCAG”: the binding signal is 8380 fluorescence intensity (a.u.). Next, “CAGTTTGATTCGTTCTTTACTTCGATTCAGTTTGTTTTCGCGGAGTCACCTAGTGCAG”: 8550 fluorescence intensity (a.u.); “TTGGTTTTTTGTGTTATCCTTCTGACAGAATATTTTGGAACGGAGTCACCTAGTGCAG”: 9360 fluorescence intensity (a.u.). For the sequence “AAAAAACACCCGCTAAATTCCCGCGAAGATTCTTTCCCGGCGGAGTCACCTAGTGCAG”, the binding signal was 8030 fluorescence intensity (a.u.). Then “AGAATCTGACGTTTTATTTCTGAAACTTTCTTTGCATGCACGGAGTCACCTAGTGCAG”, with 8030 fluorescence intensity (a.u.); and “GCTATTTATCCATTTCCTTTTCCCAATCCCACCTTTCATACGGAGTCACCTAGTGCAG”, with 12000 fluorescence intensity (a.u.).

As to “GAGTTAGCCATGGCCTGTCAATTACTGGAACTCTGTTGTACGGAGTCACCTAGTGCAG”, the binding signal was 8220 fluorescence intensity (a.u.).

As to “CCTAAAATAAATTTATTTTTCACCCATCTCACACATACCACGGAGTCACCTAGTGCAG”, the binding signal was 8080 fluorescence intensity (a.u.). Then “TGAATGAGTACTTCCAGCAAGTGTGTTTCTCGTGTCTGTCCGGAGTCACCTAGTGCAG”, with 9020 fluorescence intensity (a.u.); and “CTGTGTATCTCCAGCTCTTCCTTTTACATGTTAGTATGTTCGGAGTCACCTAGTGCAG”, with 11600 fluorescence intensity (a.u.).

For the sequence “CGCCCATTCTACACCGTCTCCATCCATCTCATCTCGTCGTCGGAGTCACCTAGTGCAG”, the binding signal is 12100 fluorescence intensity (a.u.). Next, “GTGCCTGACGTGGATCCTTGCTGTTCCCGTGTCCCAACCACGGAGTCACCTAGTGCAG”: 9670 fluorescence intensity (a.u.); “TTTTATGTATCTGGGCTGCCTATCTGCAGGAGGGAGGGGACGGAGTCACCTAGTGCAG”: 12600 fluorescence intensity (a.u.). Then “CTCGCCGTTTTGGTTTTCGTTCGCTGATTCGCTCTCGTCCCGGAGTCACCTAGTGCAG”, with 15500 fluorescence intensity (a.u.); and “CTACCAGCCGCCGCCGCCGCCGCCGCCGTACGGCGTGAACCGGAGTCACCTAGTGCAG”, with 9100 fluorescence intensity (a.u.); and “CCTAACCCATCGCCGCGCCGCGCCATCCCCACGCTGCGCCCGGAGTCACCTAGTGCAG”, with 9890 fluorescence intensity (a.u.). As for “GTCACCTTGATTATTTTTTTCAGTTTCAATTTGCTACTTTCGGAGTCACCTAGTGCAG”, the binding signal is 14300 fluorescence intensity (a.u.). Then “ATGTATGTAACCACCGAATACAATGTTTTATCCTCAATCACGGAGTCACCTAGTGCAG”, with 8510 fluorescence intensity (a.u.); and “AACTCGCTGCCGTGCCAGACGATTTTTGCCACCTCCATGCCGGAGTCACCTAGTGCAG”, with 8240 fluorescence intensity (a.u.); and “ATCGCGTTTGAACTTTGACGTGTTAGTTTTATGTTCCCATCGGAGTCACCTAGTGCAG”, with 9930 fluorescence intensity (a.u.). For “CTCCTCTCTCTCTCAGCTCACCACACCTCGAGTCGCCGCCCGGAGTCACCTAGTGCAG”, the binding signal is 8180 fluorescence intensity (a.u.). Then “GCAATTGTTCAATATTTTTTTGTGTGTATGTGTTTTTTTTCGGAGTCACCTAGTGCAG”, with 18200 fluorescence intensity (a.u.). Then “ACGTGGTACTCCCTCCGTCCAAGTTTTCGTGCTTAATTTTCGGAGTCACCTAGTGCAG”, with 12800 fluorescence intensity (a.u.); and “TACCAGCATACGGCCACTTAAGACCACCACCAAACACTTCCGGAGTCACCTAGTGCAG”, with 9190 fluorescence intensity (a.u.). Next, “CTCGCAAAGCATCGACGTGCCACCTACCCCATCCGGAACACGGAGTCACCTAGTGCAG”: 8040 fluorescence intensity (a.u.); “ATCATGTCATTTTTTTTTCAAATCTTTTTATGTTTATTTACGGAGTCACCTAGTGCAG”: 10500 fluorescence intensity (a.u.). Take “CACTATCATATTGGGTAATTAACTTGGGTAAACTTCATCGCGGAGTCACCTAGTGCAG”: the binding signal was 8190 fluorescence intensity (a.u.).

Take “CGTTCGCTTCAGCCTTCACGTACGCATCATCATGCATGACCGGAGTCACCTAGTGCAG”: the binding signal was 8420 fluorescence intensity (a.u.).

As to “CACTCCTCGCCGTCTTGTTTCTTCTTCGTCTGGGTGGTTGCGGAGTCACCTAGTGCAG”, the binding signal was 13000 fluorescence intensity (a.u.).

On to “ATATGTTACTCTCGCATCATATCCCCGGTTCTGTATGACACGGAGTCACCTAGTGCAG”, for which the binding signal was 10800 fluorescence intensity (a.u.).

Turning to “TCGTCATTAGGCTTCGCTCAAGAGCTTCGCCCTACGGCTTCGGAGTCACCTAGTGCAG”, the binding signal was 8070 fluorescence intensity (a.u.). Then “GGGAGTCACAGGAGGTAGATGGTGGGAGGGATCTAGGAAGCGGAGTCACCTAGTGCAG”, with 8880 fluorescence intensity (a.u.); and “AGACGAGACGCCTTCCGCCTTTCTTCTCCCAACGCTTTCCCGGAGTCACCTAGTGCAG”, with 8130 fluorescence intensity (a.u.); and “TAGCACCGTGTTGTACTGTTGTTCCACTCACTCGCTCGTGCGGAGTCACCTAGTGCAG”, with 8030 fluorescence intensity (a.u.).

With “AACCACAATAATCACACACTGATTCCACCGCCGGCTTCTCCGGAGTCACCTAGTGCAG”, the binding signal was 9530 fluorescence intensity (a.u.). For “GGATTCGTGCTCTGCAGCTTAAGTTTAGTGCGGCCTTCTACGGAGTCACCTAGTGCAG”, the binding signal is 11200 fluorescence intensity (a.u.). Next, “CATCCGATTTGTGTGTGCCCGCCACTGCCCTGCTGCCTCACGGAGTCACCTAGTGCAG”: 9450 fluorescence intensity (a.u.); “TCGCTTTGTTTACGCGGCGCGCCTCTCTTTTTCCTTAGCCCGGAGTCACCTAGTGCAG”: 9770 fluorescence intensity (a.u.); “CGGCTTTCCCCACTGGTTCTACAGGCATCCGCGCGGATTCCGGAGTCACCTAGTGCAG”: 8710 fluorescence intensity (a.u.).

Consider “ACCCACCCCTGCTAGGTCCGCCTCCGCCGCCGGCCACCGCCGGAGTCACCTAGTGCAG”, for which the binding signal was 11400 fluorescence intensity (a.u.). Consider “CTCCTTTATCTAACCAAATCTCAGCCATCTGTTTTTATTACGGAGTCACCTAGTGCAG”, for which the binding signal is 8500 fluorescence intensity (a.u.).

“CCTCGCATCGCATCCCCACCTCCGCCGATCCCGCCGTCTCCGGAGTCACCTAGTGCAG”: the binding signal was 8520 fluorescence intensity (a.u.).

In the case of “ACTCATGAATCATGATATCCTTGCCGTCTCAAAATCCTGTCGGAGTCACCTAGTGCAG”, the binding signal is 9300 fluorescence intensity (a.u.). Then “ACGTATTTTAGTGTTTGCCAATTTCTTTTCGAATTTTAATCGGAGTCACCTAGTGCAG”, with 13700 fluorescence intensity (a.u.). Take “GCTAGCTTCGTTCGTCCGTGAGCCGCACGATCCACATCCACGGAGTCACCTAGTGCAG”: the binding signal is 10100 fluorescence intensity (a.u.). Next, “CTCGACTGTTACCTCGATATCTCACACAAAACACACTCAACGGAGTCACCTAGTGCAG”: 9460 fluorescence intensity (a.u.); “TAACCTGGCGCCAATGGCGAACGCACCGCACCGCGAGACACGGAGTCACCTAGTGCAG”: 8360 fluorescence intensity (a.u.); “ACGCCGTTGATTTTTTTAAACATATTTGACCGTTCGTCTTCGGAGTCACCTAGTGCAG”: 11400 fluorescence intensity (a.u.). Then “GGGATCGGCCTCCGAGGGCTCCGACGCGTCGGTAGCGGCGCGGAGTCACCTAGTGCAG”, with 8130 fluorescence intensity (a.u.). Next, “ATCTTTTGGCCGTACTTTTTTTCATCTGGGTCCCTTGCCGCGGAGTCACCTAGTGCAG”: 8680 fluorescence intensity (a.u.); “GTCAGCTCACGTGGACCCACAATCGCATGTCCCAATCAAACGGAGTCACCTAGTGCAG”: 8140 fluorescence intensity (a.u.); “AATTAGTTCCAATATCCTTGCTGGTGTGATTCACCTCATACGGAGTCACCTAGTGCAG”: 8400 fluorescence intensity (a.u.).
